Results on two molecules are retold here after PMC8953689.

What all share (experiment): co-IP; HEK-293T cells cotransfected with FLAG-tagged and Xpress-tagged proteins; lysis in buffer A (50 mM Tris-HCl pH 7.4, 150 mM NaCl, 1 mM EDTA, 1% NP-40); FLAG-tagged proteins precipitated from postnuclear supernatants with Anti-Flag M2 affinity gel; copurifying proteins detected by immunoblot with tag-specific antibodies
The target in assay [1] is T1, FLAG-tagged PLIN5 (murine perilipin 5, wild type), expressed in HEK-293T (murine) (UniProt Q8BVZ1).
T1 sequence: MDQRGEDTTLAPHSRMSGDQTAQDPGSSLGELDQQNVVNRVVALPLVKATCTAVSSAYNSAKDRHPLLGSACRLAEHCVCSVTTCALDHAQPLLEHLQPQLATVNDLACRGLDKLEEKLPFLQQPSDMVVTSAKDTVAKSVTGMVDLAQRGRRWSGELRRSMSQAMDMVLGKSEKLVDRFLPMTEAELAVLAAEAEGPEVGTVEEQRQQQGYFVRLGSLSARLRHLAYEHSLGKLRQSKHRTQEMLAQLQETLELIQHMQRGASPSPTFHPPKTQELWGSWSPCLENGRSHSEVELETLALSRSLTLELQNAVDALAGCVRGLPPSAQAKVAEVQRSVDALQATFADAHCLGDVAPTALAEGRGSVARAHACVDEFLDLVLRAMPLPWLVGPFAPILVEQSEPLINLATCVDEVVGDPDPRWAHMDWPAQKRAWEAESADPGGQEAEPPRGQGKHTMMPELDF

For assay [2], the target named is T2, FLAG-tagged PLIN5(Δ424–463) (murine) (UniProt Q8BVZ1).
T2 sequence: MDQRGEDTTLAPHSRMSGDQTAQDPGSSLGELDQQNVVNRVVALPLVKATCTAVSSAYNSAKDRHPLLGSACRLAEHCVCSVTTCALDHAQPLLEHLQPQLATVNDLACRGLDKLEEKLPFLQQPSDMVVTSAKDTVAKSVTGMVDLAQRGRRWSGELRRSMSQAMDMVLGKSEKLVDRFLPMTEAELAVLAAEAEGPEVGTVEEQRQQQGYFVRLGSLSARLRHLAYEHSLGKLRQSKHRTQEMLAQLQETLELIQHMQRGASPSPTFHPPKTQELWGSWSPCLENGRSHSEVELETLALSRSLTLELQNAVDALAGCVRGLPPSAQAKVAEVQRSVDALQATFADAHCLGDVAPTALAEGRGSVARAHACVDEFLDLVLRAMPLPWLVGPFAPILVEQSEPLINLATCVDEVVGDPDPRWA

Assay [3] has as its target T3, FLAG-PLIN5(Δ444–463) (murine) (UniProt Q8BVZ1).
T3 sequence: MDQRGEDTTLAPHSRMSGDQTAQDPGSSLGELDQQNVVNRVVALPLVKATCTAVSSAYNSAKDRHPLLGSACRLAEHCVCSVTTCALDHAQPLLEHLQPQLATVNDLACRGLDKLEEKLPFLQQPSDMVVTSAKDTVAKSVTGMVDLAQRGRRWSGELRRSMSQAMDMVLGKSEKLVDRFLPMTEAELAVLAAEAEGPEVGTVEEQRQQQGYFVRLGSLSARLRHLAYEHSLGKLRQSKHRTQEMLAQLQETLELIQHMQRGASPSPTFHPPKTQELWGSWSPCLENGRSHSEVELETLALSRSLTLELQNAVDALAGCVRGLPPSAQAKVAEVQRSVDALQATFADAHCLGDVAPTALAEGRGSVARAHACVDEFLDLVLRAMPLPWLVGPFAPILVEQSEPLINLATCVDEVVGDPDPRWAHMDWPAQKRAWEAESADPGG

Assay [4] addresses T1, FLAG-tagged PLIN5 (murine perilipin 5, wild type), expressed in HEK-293T (murine). The source holds these as a separate data set.

Read-outs that look alike come from different tables or passages of the source. Results are given in words; binding and its absence hold for the method and conditions named. In cells and extracts the contact can be indirect. Some binding calls cover weakened binding; strength is not graded here. Sequences can lack the tags named with a protein.

As for “Xpress-tagged CGI-58 (murine comparative gene identification-58) (from UniProt Q9DBL9-1 1-351)”, the binding result in assay [1] and in assay [2] was “binds” throughout.

B1: Xpress-tagged ATGL (murine adipose triglyceride lipase) (enzyme, UniProt Q8BJ56-1 1-486)
chain: MFPRETKWNISFAGCGFLGVYHIGVASCLREHAPFLVANATHIYGASAGALTATALVTGACLGEAGANIIEVSKEARKRFLGPLHPSFNLVKTIRGCLLKTLPADCHERANGRLGISLTRVSDGENVIISHFSSKDELIQANVCSTFIPVYCGLIPPTLQGVRYVDGGISDNLPLYELKNTITVSPFSGESDICPQDSSTNIHELRVTNTSIQFNLRNLYRLSKALFPPEPMVLREMCKQGYRDGLRFLRRNGLLNQPNPLLALPPVVPQEEDAEEAAVVEERAGEEDQLQPYRKDRILEHLPARLNEALLEACVEPKDLMTTLSNMLPVRLATAMMVPYTLPLESAVSFTIRLLEWLPDVPEDIRWMKEQTGSICQYLVMRAKRKLGDHLPSRLSEQVELRRAQSLPSVPLSCATYSEALPNWVRNNLSLGDALAKWEECQRQLLLGLFCTNVAFPPDALRMRAPASPTAADPATPQDPPGLPPC
As to B1, the binding result in assay [3] and in assay [4] was “binds” throughout.
